Experimental data from patent US7320975B2, “2-(2-pyridyl)-5-phenyl-6-aminopyrimidine, method and intermediate products for the production and use thereof for combating noxious fungi” (BASF Aktiengesellschaft, priority 2002, dated 2008).
Some of these results come from one statement about several compounds together.

Legend:
Assay type in all cases: in vivo
Botrytis cinerea = test: Activity against Botrytis cinerea on capsicum leaves; conditions: 250 ppm active compound, capsicum seedlings sprayed the day before inoculation, assessed visually after 5 days; untreated plants 90% infected
Alternaria solani = test: Activity against Alternaria solani on tomatoes; conditions: 63 ppm active compound, tomato leaves sprayed the day before infection, assessed visually after 5 days; untreated plants 100% infected
Sphaerotheca fuliginea = test: Protective activity against powdery mildew of cucumber caused by Sphaerotheca fuliginea; conditions: 63 ppm active compound, cucumber seedlings sprayed 20 hours before inoculation, % infection of cotyledon area after 7 days; untreated plants 100% infected
[1] = tested on: Pyrenophora [syn. Drechslera] teres; test: Activity against net blotch of barley; conditions: 63 ppm active compound, barley seedlings sprayed 24 hours before inoculation, % infection of total leaf area after 6 days; untreated plants 90% infected

| Structure (SMILES) | infection (Botrytis cinerea) | infection (Alternaria solani) [%] | infection (Sphaerotheca fuliginea) [%] | infection [1] |
| --- | --- | --- | --- | --- |
| CC(C)Nc1nc(-c2ccccn2)nc(Cl)c1-c1c(F)cc(F)cc1F [I-1, 6-Chloro-5-(2,4,6-trifluorophenyl)-4-isopropylamino-2-(2-pyridyl)pyrimidine] | up to 5% | ≤ 3 | ≤ 10 | not more than 15% |
| C=C(C)CN(CC)c1nc(-c2ccccn2)nc(Cl)c1-c1c(F)cccc1Cl [I-2] | up to 5% | ≤ 3 |  | not more than 15% |
| CC(C)Nc1nc(-c2ccccn2)nc(Cl)c1-c1c(F)cccc1Cl [I-3] | up to 5% | ≤ 3 | ≤ 10 | not more than 15% |
| Fc1cccc(Cl)c1-c1c(Cl)nc(-c2ccccn2)nc1NC1CCCC1 [I-4] | up to 5% | ≤ 3 |  | not more than 15% |
| CCN(CC)c1nc(-c2ccccn2)nc(Cl)c1-c1c(F)cccc1Cl [I-5] | up to 5% | ≤ 3 | ≤ 10 | not more than 15% |
| C[C@@H](Nc1nc(-c2ccccn2)nc(Cl)c1-c1c(F)cccc1Cl)C(C)(C)C [I-7] | up to 5% | ≤ 3 | ≤ 10 |  |
| CC1CCN(c2nc(-c3ccccn3)nc(Cl)c2-c2c(F)cccc2Cl)CC1 [I-8] |  |  | ≤ 10 |  |
| CCN(CC)c1nc(-c2ccccn2)nc(Cl)c1-c1c(F)cc(F)cc1F [I-9] | up to 5% | ≤ 3 | ≤ 10 |  |
| Fc1cc(F)c(-c2c(Cl)nc(-c3ccccn3)nc2NC2CCCC2)c(F)c1 [I-11] | up to 5% | ≤ 3 |  |  |
| C[C@H](Nc1nc(-c2ccccn2)nc(Cl)c1-c1c(F)cc(F)cc1F)C(F)(F)F [I-12] | up to 5% | ≤ 3 | ≤ 10 | not more than 15% |
| CC(C)[C@H](C)Nc1nc(-c2ccccn2)nc(Cl)c1-c1c(F)cc(F)cc1F [I-13] | up to 5% | ≤ 3 | ≤ 10 | not more than 15% |
| CC(C)(C)CNc1nc(-c2ccccn2)nc(Cl)c1-c1c(F)cc(F)cc1F [I-14] | up to 5% | ≤ 3 |  | not more than 15% |
| C[C@@H](Nc1nc(-c2ccccn2)nc(Cl)c1-c1c(F)cc(F)cc1F)C(C)(C)C [I-15] |  | ≤ 3 |  |  |
| CC(C)[C@@H](C)Nc1nc(-c2ccccn2)nc(Cl)c1-c1c(F)cc(F)cc1F [I-16] |  | ≤ 3 | ≤ 10 |  |
| Cc1cccc(-c2nc(Cl)c(-c3c(F)cc(F)cc3F)c(N[C@@H](C)C(F)(F)F)n2)n1 [I-18] |  |  | ≤ 10 |  |
| Cc1cccc(-c2nc(Cl)c(-c3c(F)cc(F)cc3F)c(NCC(C)(C)C)n2)n1 [I-20] | up to 5% | ≤ 3 |  |  |
| Cc1cccc(-c2nc(Cl)c(-c3c(F)cc(F)cc3F)c(N(C)C(C)C)n2)n1 [I-21] |  |  | ≤ 10 |  |
| Cc1cccc(-c2nc(Cl)c(-c3c(F)cc(F)cc3F)c(N3CCOCC3)n2)n1 [I-24] | up to 5% | ≤ 3 |  |  |
| CCC(C)Nc1nc(-c2cccc(C)n2)nc(Cl)c1-c1c(F)cc(F)cc1F (stereo not drawn) [I-25] |  | ≤ 3 |  |  |
| Cc1ccnc(-c2nc(Cl)c(-c3c(F)cc(F)cc3F)c(N[C@@H](C)C(F)(F)F)n2)c1 [I-32] | up to 5% | ≤ 3 | ≤ 10 | not more than 15% |
| Cc1ccnc(-c2nc(Cl)c(-c3c(F)cc(F)cc3F)c(N(C)C(C)C)n2)c1 [I-33] | up to 5% | ≤ 3 | ≤ 10 | not more than 15% |
| Cc1ccnc(-c2nc(Cl)c(-c3c(F)cc(F)cc3F)c(N[C@@H](C)C(C)C)n2)c1 [I-34] | up to 5% |  |  |  |
| Cc1ccnc(-c2nc(Cl)c(-c3c(F)cc(F)cc3F)c(N3CCC(C)CC3)n2)c1 [I-35] | up to 5% |  |  |  |
| Cc1ccnc(-c2nc(Cl)c(-c3c(F)cc(F)cc3F)c(N[C@@H](C)C(C)(C)C)n2)c1 [I-36] | up to 5% |  |  |  |
| CCN(CC)c1nc(-c2cc(C)ccn2)nc(Cl)c1-c1c(F)cc(F)cc1F [I-37] | up to 5% |  |  |  |
| Cc1ccnc(-c2nc(Cl)c(-c3c(F)cc(F)cc3F)c(NCC(C)(C)C)n2)c1 [I-38] | up to 5% |  |  | not more than 15% |

| Structure (SMILES) | infection (Botrytis cinerea) | infection (Alternaria solani) [%] | infection (Sphaerotheca fuliginea) [%] | infection [1] |
| --- | --- | --- | --- | --- |
| C=C(C)CN(CC)c1nc(-c2cc(C)ccn2)nc(Cl)c1-c1c(F)cc(F)cc1F [I-39] | up to 5% |  |  |  |
| CCC(C)Nc1nc(-c2cc(C)ccn2)nc(Cl)c1-c1c(F)cc(F)cc1F (stereo not drawn) [I-40] | up to 5% |  |  |  |
| Cc1ccnc(-c2nc(Cl)c(-c3c(F)cc(F)cc3F)c(NC3CCCC3)n2)c1 [I-41] | up to 5% |  |  |  |
| CC(Nc1nc(-c2ccccn2)nc(Cl)c1-c1c(F)cccc1Cl)C(F)(F)F (stereo not drawn) [I-51] | up to 5% | ≤ 3 | ≤ 10 | not more than 15% |
| C=C(C)CN(CC)c1nc(-c2ccccn2)nc(Cl)c1-c1c(F)cc(F)cc1F [I-52] |  |  | ≤ 10 |  |
| CCC(C)Nc1nc(-c2ccccn2)nc(Cl)c1-c1c(F)cc(F)cc1F (stereo not drawn) [I-53] | up to 5% |  |  |  |
| CCC(C)Nc1nc(-c2ccccn2)nc(Cl)c1-c1c(F)cc(F)cc1F (stereo not drawn) [I-54] |  | ≤ 3 | ≤ 10 |  |
| CC(C)N(C)c1nc(-c2ccccn2)nc(Cl)c1-c1c(F)cc(F)cc1F [I-55] | up to 5% |  | ≤ 10 |  |
| Fc1cc(F)c(-c2c(Cl)nc(-c3ccccn3)nc2NCC(F)(F)F)c(F)c1 [I-56] | up to 5% |  | ≤ 10 | not more than 15% |
| CC1CCN(c2nc(-c3ccccn3)nc(Cl)c2-c2c(F)cc(F)cc2F)CC1 [I-57] | up to 5% |  |  |  |
| COc1cc(F)c(-c2c(Cl)nc(-c3ccccn3)nc2N2CCC(C)CC2)c(F)c1 [I-58] | up to 5% | ≤ 3 | ≤ 10 |  |
| COc1cc(F)c(-c2c(Cl)nc(-c3ccccn3)nc2NC(C)C)c(F)c1 [I-59] | up to 5% | ≤ 3 | ≤ 10 |  |
| CCC(C)Nc1nc(-c2ccccn2)nc(Cl)c1-c1c(F)cc(OC)cc1F (stereo not drawn) [I-62] | up to 5% | ≤ 3 | ≤ 10 |  |
| C=C(C)CN(CC)c1nc(-c2ccccn2)nc(Cl)c1-c1c(F)cc(OC)cc1F [I-63] | up to 5% | ≤ 3 | ≤ 10 |  |
| CCN(CC)c1nc(-c2ccccn2)nc(Cl)c1-c1c(F)cc(OC)cc1F [I-64] | up to 5% | ≤ 3 | ≤ 10 | not more than 15% |
| COc1cc(F)c(-c2c(Cl)nc(-c3ccccn3)nc2NC2CCCC2)c(F)c1 [I-66] | up to 5% | ≤ 3 | ≤ 10 |  |
| COc1cc(F)c(-c2c(Cl)nc(-c3ccccn3)nc2N[C@@H](C)C(C)C)c(F)c1 [I-67] | up to 5% | ≤ 3 | ≤ 10 |  |
| COc1cc(F)c(-c2c(Cl)nc(-c3ccccn3)nc2N[C@@H](C)C(C)(C)C)c(F)c1 [I-68] | up to 5% | ≤ 3 | ≤ 10 |  |
| CC(C)[C@H](C)Nc1nc(-c2ccccn2)nc(Cl)c1-c1c(F)cccc1F [I-82] | up to 5% |  |  |  |
| CC(C)Nc1nc(-c2ccccn2)nc(Cl)c1-c1c(F)cccc1F [I-83] | up to 5% |  | ≤ 10 |  |
| Cc1ccc(-c2c(Cl)nc(-c3ccccn3)nc2NC(C)C)c(C)c1 [I-86] | up to 5% |  |  | not more than 15% |
| Cc1ccc(-c2c(Cl)nc(-c3ccccn3)nc2NC2CCCC2)c(C)c1 [I-87] | up to 5% |  |  |  |
| Cc1ccc(-c2c(Cl)nc(-c3ccccn3)nc2N[C@@H](C)C(C)C)c(C)c1 [I-88] | up to 5% |  |  |  |
| CCNc1nc(-c2ccccn2)nc(Cl)c1-c1ccc(C)cc1C [I-90] | up to 5% |  |  |  |
| Cc1ccc(-c2c(Cl)nc(-c3ccccn3)nc2NC(C)C)c(F)c1 [I-94] |  | ≤ 3 |  |  |
| CCN(CC(C)C)c1nc(-c2cc(C)ccn2)nc(Cl)c1-c1c(F)cc(F)cc1F [I-115] | up to 5% |  |  |  |
